Taken from: PubChem BioAssay AID686937 (Drosophila RNAi Screening Center, 2013)

- Purpose: 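Genes whose loss weakens secretory pathway function in fly cells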 (primary screen)
- Cell system: Drosophila S2 cells expressing secreted horseradish peroxidase
- Knock-down reagent: long dsRNA against Drosophila genes
- Time to read-out: about 5.5 days (5 days dsRNA, then 12 h reporter induction)
- Treatment: reporter expression induced after 5 days of dsRNA, read 12 h later; inducer not stated
- Measurement: 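After 5 days of dsRNA and 12 h of reporter induction, medium peroxidase read by chemiluminescence and scored as per-plate z-score; higher values mean more reporter released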
- Reading the numbers: z-score: higher = more reporter secreted into medium
The screen tested about 23,000 reagents; below is a random part of those that have a named target and a result. 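Reduced-secretion tags in replicate 1 do not always agree with the z-scores; no criterion for assigning the tags was given.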 A plus sign joins genes that one reagent is predicted to hit. Not all columns of the deposit are shown. Not given: the amount of reagent.

| z-score, replicate 1 | z-score, replicate 2 | z-score, replicate 3 | z-score, replicate 4 | target gene | amplicon |
| --- | --- | --- | --- | --- | --- |
| 0.12 | 0.44 | – | – | CG18641 | DRSC00527 |
| 0.46 | 0.56 | – | – | CG13813 | DRSC10068 |
| -0.07 | 0.39 | – | – | CG14341 | DRSC00371 |
| 0.27 | 0.44 | – | – | Yp1 | DRSC18731 |
| 0.08 | 0.27 | 0.32 | 0.1 | l(2)37Bb | DRSC02088 |
| -0.55 | -0.13 | – | – | Prosbeta5R2 | DRSC01617 |
| -0.27 | -0.18 | – | – | Obp51a | DRSC22412 |
| -1.78 | 0.22 | 0.21 | -0.76 | CG13949 | DRSC00367 |
| 0.17 | 0.43 | – | – | stl | DRSC04396 |
| 0.23 | 0.25 | – | – | Tsp42Ep | DRSC06871 |
| 0.07 | 0.32 | – | – | CG33769 | DRSC11716 |
| 0.57 | 0.24 | – | – | Or19a | DRSC20684 |
| 0.38 | 0.38 | – | – | CG33281 | DRSC00421 |
| 0.36 | 0.41 | – | – | 5-HT1A | DRSC05030 |
| 0.4 | 0.64 | – | – | Bcat | DRSC19756 |
| 0.31 | 0.45 | – | – | Acp53Ea | DRSC05916 |
| 0.44 | 0.26 | – | – | tyn | DRSC20652 |
| 0 | 0.2 | – | – | CG17105 | DRSC02574 |
| 0.32 | 0.56 | – | – | CG4610 | DRSC04477 |
| 0.03 | 0.12 | – | – | CG4610 | DRSC22397 |
| -0.42 | -0.12 | – | – | CG34221 | DRSC06150 |
| 0.24 | 0.5 | – | – | topi | DRSC16431 |
| 0.22 | 0.27 | – | – | Dhc62B | DRSC08655 |
| 0.36 | 0.3 | – | – | CG10962 | DRSC18421 |
| 0.33 | 0.44 | – | – | CG30486 | DRSC06680 |
| 0.21 | 0.25 | – | – | Elys | DRSC19571 |
| -0.64 | -0.47 | – | – | COX7B | DRSC10895 |
| 0.38 | 0.36 | – | – | CG2955 | DRSC00552 |
| 0.39 | 0.29 | – | – | CG32195 | DRSC09533 |
| 0.5 | 0.96 | – | – | CG4066 | DRSC15541 |
| 0.16 | 0.72 | – | – | Argp | DRSC16510 |
| -0.64 | -0.15 | – | – | Cpr66D | DRSC10640 |
| -8.02 | 0.22 | – | – | Cpr66D | DRSC10646 |
| 0.26 | 0.22 | – | – | l(3)72Dn | DRSC10468 |
| 0.15 | 0.11 | – | – | Syx16 | DRSC20507 |
| 0.42 | 0.28 | – | – | Jhbp5 | DRSC14240 |
| 0.37 | 0.23 | – | – | CG43062 | DRSC12866 |
| -1.67 | -1.49 | – | – | mim | DRSC05013 |
| -2.72 | -2.14 | – | – | dsb | DRSC08407 |
| 0.37 | 0.33 | – | – | dsb | DRSC08542 |
| -0.84 | -0.43 | – | – | CG31415 | DRSC22409 |
| 0.48 | 0.31 | – | – | Neu2 | DRSC11819 |
| 0.02 | 0.09 | – | – | Lcp9 | DRSC04287 |
| 0.24 | -0.01 | – | – | CG13321 | DRSC06358 |
| 0.57 | 0.57 | – | – | CG13364 | DRSC17898 |
| 0.33 | 0.47 | – | – | CG13364 | DRSC21263 |
| 0.05 | 0.07 | – | – | CG7829 | DRSC16322 |
| -0.19 | 0.39 | – | – | CG16704 | DRSC00475 |
| 0.21 | – | – | – | CheA46a | DRSC05184 |
| 0.43 | 0.44 | – | – | CG2258 | DRSC18222 |
| 0.39 | 0.46 | – | – | GstS1 | DRSC07436 |
| 0.45 | 0.44 | – | – | PPO1 | DRSC05929 |
| 0.19 | 0.36 | – | – | CG3795 | DRSC18593 |
| 0.04 | 0.14 | – | – | Lap1 | DRSC07454 |
| 0.62 | 0.63 | – | – | CG5938 | DRSC15923 |
| 0.32 | 0.17 | – | – | ND-B15 | DRSC06199 |
| 0.5 | 0.47 | – | – | Tet | DRSC08006 |
| -0.15 | 0.13 | – | – | Tet | DRSC08550 |
| -0.14 | 0.06 | – | – | Tet | DRSC08646 |
| 0.41 | 0.44 | – | – | Mer | DRSC20259 |
| 0.27 | 0.29 | – | – | CG13309 | DRSC09980 |
| 0.06 | 0.05 | – | – | CG7631 | DRSC01873 |
| 0.19 | 0.49 | – | – | timeout | DRSC12950 |
| 0.43 | 0.39 | – | – | timeout | DRSC17078 |
| 0.31 | -0.03 | – | – | timeout | DRSC17079 |
| 0.45 | 0.73 | – | – | timeout | DRSC17080 |
| 0.34 | 0.57 | – | – | timeout | DRSC17081 |
| 0.15 | -0.39 | – | – | timeout | DRSC21535 |
| 0.22 | 0.44 | – | – | blot | DRSC09485 |
| 0.12 | 0.2 | – | – | blot | DRSC11328 |
| -1.75 | -2.07 | – | – | CG14247 | DRSC14742 |
| 0.32 | 0.22 | – | – | CG10680 | DRSC02093 |
| -0.11 | 0.08 | – | – | mod(mdg4) + pre-mod(mdg4)-Z + pre-mod(mdg4)-T | DRSC13477 |
| 0.24 | 0.31 | – | – | mod(mdg4) + pre-mod(mdg4)-Z + pre-mod(mdg4)-T | DRSC17001 |
| -0.07 | 0.22 | – | – | Hira | DRSC18672 |
| 0.21 | 0.33 | – | – | Cul5 | DRSC14723 |
| -0.04 | 0.27 | – | – | CG33229 | DRSC07863 |
| 0.26 | 0.35 | – | – | CG16753 | DRSC08489 |
| -0.24 | 0.23 | – | – | CG14907 + Mettl4 | DRSC15026 |
| 0.08 | 0.08 | – | – | CG14907 + Mettl4 | DRSC15027 |
| -1.1 | -1.4 | – | – | tho2 | DRSC00646 |
| 0.19 | 0.57 | – | – | CG14014 | DRSC02345 |

Single entries from the list.
CG16704 [DRSC00475], z-score, replicate 1: -0.19
Entry of Yp1 [DRSC18731] under “z-score, replicate 1”: 0.27
For “z-score, replicate 2”, mim [DRSC05013] is entered as -1.49
CG14907 + Mettl4 [DRSC15027], z-score, replicate 2 = 0.08
Value of Tet [DRSC08646] in “z-score, replicate 2”: 0.06
Entry for timeout [DRSC17080] in “z-score, replicate 1”: 0.45
